Two molecules from publication PMC5050456 can be followed below.

Test [1] addresses T1, Bcl-xL (rat (endogenous in spinal cord of SD rats)), P53563.
T1 chain: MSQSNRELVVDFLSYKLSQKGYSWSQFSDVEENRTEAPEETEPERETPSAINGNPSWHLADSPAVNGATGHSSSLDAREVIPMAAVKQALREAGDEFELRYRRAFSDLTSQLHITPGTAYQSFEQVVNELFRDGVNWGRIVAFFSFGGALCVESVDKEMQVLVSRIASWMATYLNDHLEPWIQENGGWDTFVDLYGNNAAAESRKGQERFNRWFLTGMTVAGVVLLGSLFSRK
In words: co-IP; about 100 ug mitochondrial fraction of rat spinal cord; precipitated with polyclonal rabbit anti-Bcl-xL antibody and protein A+G sepharose, 5 h at 4 °C; washed 6 times with TNE buffer (10 mM Tris-HCl pH 7.5, 1% NP-40, 0.15 M NaCl, 1 mM EDTA); blotted with anti-Bad and anti-Bcl-xL; rats treated with saline, HD, or HD and then BMSC transplantation. The conditions noted are these: remark: other sources report otherwise.

The target of test [2] is T2, Bcl-xL (in VSC4.1 cells) (not stated (endogenous in VSC4.1 cells)), P53563.
T2 chain: T1 chain
Put plainly: co-IP; VSC4.1 cells; Bad co-precipitated by anti-Bcl-xL antibody; cells treated with HD (25 mM), HD and then BMSC-CM, with or without the Akt inhibitor MK-2206; the methods describe the procedure only for spinal cord. The conditions noted are these: remark: other sources report otherwise.

These are yes or no findings as the source states them, for the method shown. In cells and extracts the contact can be indirect. Some binding calls cover weakened binding; strength is not graded here.

B1: Bad, O35147 1-205 (protein)
chain: MGTPKQPSLAPAHALGLRKSDPGIRSLGSDAGGRRWRPAAQSMFQIPEFEPSEQEDASTTDRGLGPSLTEDQPGPYLAPGLLGSIVQQQPGQAANNSHHGGAGTMETRSRHSSYPAGTEEDEGMEEELSPFRGRSRSAPPNLWAAQRYGRELRRMSDEFEGSFKGLPRPKSAGTATQMRQSASWTRIIQSWWDRNLGKGGSTPSQ
With B1, the binding entry in test [1] is “binds”.

B2: Bad (in VSC4.1 cells), O35147 1-205 (protein)
chain: B1 chain
For the molecule B2, the binding result in test [2] is recorded as “binds”.
